Results are given in words; binding and its absence hold for the method and conditions named. A result given as binding can be weak or reduced; the word gives no strength.
Assays:
[1] = biological target: MBP-IbbHLH3 (sweet potato (Ipomoea batatas)); assay: pull-down; MBP pull-down: recombinant GST-IbbHLH4 co-incubated with MBP-IbbHLH3 and amylose resin; washed five times with MBP column buffer; western blot with anti-MBP and anti-GST; both purified
[2] = biological target: GST-IbWIPK1 (sweet potato (Ipomoea batatas)) (UniProt E5LEV3); assay: pull-down; GST pull-down: GST-fusion proteins co-incubated with MBP-IbbHLH3 and GST resin; washed with PBS; western blot with anti-GST and anti-MBP; both purified
[3] = biological target: GST-IbWIPK2 (sweet potato (Ipomoea batatas)); assay: as above
[4] = biological target: GST-JAZ1 (sweet potato (Ipomoea batatas)); assay: as above
[5] = biological target: GST-JAZ2a (sweet potato (Ipomoea batatas)); assay: as above
[6] = biological target: GST-JAZ2b (sweet potato (Ipomoea batatas)); assay: as above

Sequences of proteins named here, by UniProt entry; tags and fusion partners are left off. A change or cut given only in a name is not applied to a line headed by its entry.
UniProt E5LEV3: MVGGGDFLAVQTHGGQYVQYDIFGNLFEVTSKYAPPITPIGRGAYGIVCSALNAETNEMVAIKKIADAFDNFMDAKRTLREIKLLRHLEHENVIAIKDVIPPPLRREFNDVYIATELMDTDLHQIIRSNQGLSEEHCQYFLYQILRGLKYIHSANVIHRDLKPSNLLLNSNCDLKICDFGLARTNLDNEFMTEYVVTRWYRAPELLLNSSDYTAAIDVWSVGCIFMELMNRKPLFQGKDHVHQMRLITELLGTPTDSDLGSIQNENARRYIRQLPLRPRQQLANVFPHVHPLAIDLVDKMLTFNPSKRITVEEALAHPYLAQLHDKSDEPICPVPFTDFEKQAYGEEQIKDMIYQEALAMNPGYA
UniProt A0A142KXI3: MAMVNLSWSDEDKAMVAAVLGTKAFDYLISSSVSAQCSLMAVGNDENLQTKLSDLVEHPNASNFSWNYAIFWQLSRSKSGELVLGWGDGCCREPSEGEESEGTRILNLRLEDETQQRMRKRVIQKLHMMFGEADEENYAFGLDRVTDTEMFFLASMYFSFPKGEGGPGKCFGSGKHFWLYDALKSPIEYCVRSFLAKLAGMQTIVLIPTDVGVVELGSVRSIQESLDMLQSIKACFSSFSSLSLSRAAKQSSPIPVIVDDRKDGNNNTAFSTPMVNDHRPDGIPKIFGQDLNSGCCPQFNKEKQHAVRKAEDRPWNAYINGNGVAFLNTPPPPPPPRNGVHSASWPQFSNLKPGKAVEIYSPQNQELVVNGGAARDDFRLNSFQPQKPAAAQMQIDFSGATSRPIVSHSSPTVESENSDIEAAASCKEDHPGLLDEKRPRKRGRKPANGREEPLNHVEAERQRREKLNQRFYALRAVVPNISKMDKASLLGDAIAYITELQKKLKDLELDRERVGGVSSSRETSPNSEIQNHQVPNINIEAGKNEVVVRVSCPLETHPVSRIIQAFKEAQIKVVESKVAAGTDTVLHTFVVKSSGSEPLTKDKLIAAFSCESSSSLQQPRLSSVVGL
UniProt A0A142KXI2: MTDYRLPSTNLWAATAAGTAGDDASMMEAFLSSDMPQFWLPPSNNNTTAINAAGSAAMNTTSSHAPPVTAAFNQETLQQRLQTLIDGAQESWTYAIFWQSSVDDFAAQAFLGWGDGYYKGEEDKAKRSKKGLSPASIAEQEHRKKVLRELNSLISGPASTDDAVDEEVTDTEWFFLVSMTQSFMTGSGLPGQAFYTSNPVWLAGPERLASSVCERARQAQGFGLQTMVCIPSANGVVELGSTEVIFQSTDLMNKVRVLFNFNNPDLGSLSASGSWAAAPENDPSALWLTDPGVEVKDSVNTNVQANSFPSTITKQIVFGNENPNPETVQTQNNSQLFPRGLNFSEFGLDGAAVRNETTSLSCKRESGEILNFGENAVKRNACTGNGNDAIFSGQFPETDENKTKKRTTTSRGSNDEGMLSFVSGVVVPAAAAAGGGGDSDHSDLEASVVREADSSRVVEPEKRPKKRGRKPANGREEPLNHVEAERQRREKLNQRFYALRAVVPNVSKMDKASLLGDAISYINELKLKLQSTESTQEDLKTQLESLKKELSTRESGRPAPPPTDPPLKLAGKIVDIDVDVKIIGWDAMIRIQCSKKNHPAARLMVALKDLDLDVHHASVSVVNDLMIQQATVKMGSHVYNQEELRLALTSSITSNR

Measured: binding

GST-IbbHLH4 (recombinant protein) (from UniProt A0A142KXI3)
binds: [1]

MBP-IbbHLH3 (from UniProt A0A142KXI2)
not listed: [1]
binds: all other assays above

From article PMC5079590
